Measurements as given in PMC4880913.

Target: T1, p63-DBD L210R L249R (UniProt Q9H3D4)
T1 sequence (looked up): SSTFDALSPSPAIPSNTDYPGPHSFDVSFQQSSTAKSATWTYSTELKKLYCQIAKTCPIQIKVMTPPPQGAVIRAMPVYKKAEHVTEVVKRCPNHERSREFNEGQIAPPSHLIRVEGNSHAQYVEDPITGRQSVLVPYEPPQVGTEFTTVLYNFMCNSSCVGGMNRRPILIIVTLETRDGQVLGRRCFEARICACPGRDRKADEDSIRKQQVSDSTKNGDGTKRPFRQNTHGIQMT
Assay: fluorescence polarization
Settings: FP: 100 nM 5'-fluorescein dsDNA, 10 mM sodium phosphate pH 7.2, 1 mM DTT, temperature not stated; recombinant protein; residues 153-388; label: 5'-fluorescein

Q: Does “TTAGGACATGTCCATC (double strand) [con2 x 5 (FP)]” bind?
A: binds more weakly

For at least one entry, the source does not settle the construct or the ends of the probe. A weaker result is weaker than the reference pair of the same experiment. At least one verdict was read from the data and is not stated in words by the source. Protein sequences can lack the tags named with them.
